Results: patent US8686000B2, “Herbicidally active ketosultams and diketopyridines” (Bayer Cropscience AG, priority 2010, dated 2014)
Some of these results come from one statement about several compounds together.

test system: Veronica persica; experiment: Pre-emergence herbicidal action against weed plants; type: in vivo; conditions: 320 grams per hectare, scored visually after 3 to 4 weeks

| Structure (SMILES) | effect against Veronica persica |
| --- | --- |
| Cc1cc(Br)cc(C)c1-c1c(O)c2scnc2n(CC(F)F)c1=O [I-a-97] | at least 80% |
| Cc1ccc(Cl)c(-c2c(O)c3scnc3n(CC(F)F)c2=O)c1Cl [I-a-89] | at least 80% |
| O=c1c(-c2c(Cl)ccc(Br)c2Cl)c(O)c2scnc2n1CC(F)F [I-a-75] | at least 80% |
| Cc1c(Br)ccc(Cl)c1-c1c(O)c2scnc2n(CC(F)F)c1=O [I-a-94] | at least 80% |
| CCOC(=O)Oc1c(-c2c(C)cc(Br)cc2CC)c(=O)n(C)c2ncsc12 [I-c-38] | at least 80% |

same assay, conditions: 1280 grams per hectare, scored visually after 3 to 4 weeks

| Structure (SMILES) | effect against Veronica persica |
| --- | --- |
| Cc1ccc(Cl)c(-c2c(O)c3scnc3n(C)c2=O)c1Cl [I-a-90] | at least 80% |
| CCSC(=O)OC1=C(c2ccc(Cl)cc2Cl)S(=O)(=O)N(CC(F)F)c2ncsc21 [I-c-4] | at least 80% |
| Cc1cc(Cl)cc(Cl)c1-c1c(O)c2cn(C)nc2n(CC(F)F)c1=O [I-a-66] | at least 80% |
| C[N+](C)(C)C.Cc1cc(C)c(-c2c([O-])c3scnc3n(CC(F)F)c2=O)c(C)c1 [I-g-5] | at least 80% |
| O=S1(=O)C(c2c(Cl)cccc2Cl)=C(O)c2scnc2N1CC(F)F [I-a-9] | at least 80% |
| Cn1cc2c(n1)N(CC(F)F)S(=O)(=O)C(c1c(Cl)cccc1Cl)=C2O [I-a-26] | at least 80% |
| CCc1cc(Br)cc(C)c1-c1c(O)c2scnc2n(CC(F)F)c1=O [I-a-96] | at least 80% |
| C=CCn1c(=O)c(-c2c(Cl)cccc2Cl)c(OC(=O)CC(C)C)c2scnc21 [I-b-13] | at least 80% |

test system: Echinoa crus galli; experiment: as above; type: in vivo; conditions: 1280 grams per hectare, scored visually after 3 to 4 weeks

| Structure (SMILES) | effect against Echinoa crus galli |
| --- | --- |
| Cc1cc(Cl)cc(Cl)c1-c1c(O)c2cn(C)nc2n(CC(F)(F)F)c1=O [I-a-65] | at least 80% |
| Cn1cc2c(n1)N(CC(F)(F)F)S(=O)(=O)C(c1ccccc1I)=C2O [I-a-13] | at least 80% |
| CCc1cc(Cl)cc(Cl)c1-c1c(O)c2cn(C)nc2n(C)c1=O [I-a-74] | at least 80% |
| C=CCn1c(=O)c(-c2c(Br)cc(Cl)cc2CC)c(OC(=O)CC(C)C)c2scnc21 [I-b-14] | at least 80% |

test system: Lolium multiflorum; experiment: as above; type: in vivo; conditions: 320 grams per hectare, scored visually after 3 to 4 weeks

| Structure (SMILES) | effect against Lolium multiflorum |
| --- | --- |
| CCc1cc(Cl)cc(Br)c1-c1c(O)c2scnc2n(CC(F)F)c1=O [I-a-36] | at least 80% |
| C=CCn1c(=O)c(-c2c(Br)cc(Cl)cc2CC)c(OC(=O)C(C)(C)C)c2scnc21 [I-b-22] | at least 80% |
| C#CCn1c(=O)c(-c2c(Cl)cccc2Cl)c(O)c2scnc21 [I-a-44] | at least 80% |

same assay, conditions: 1280 grams per hectare, scored visually after 3 to 4 weeks

| Structure (SMILES) | effect against Lolium multiflorum |
| --- | --- |
| Cc1cc(Cl)cc(Cl)c1-c1c(O)c2cn(C)nc2n(CC(F)(F)F)c1=O [I-a-65] | at least 80% |
| Cn1cc2c(n1)N(CC(F)(F)F)S(=O)(=O)C(c1ccccc1I)=C2O [I-a-13] | at least 80% |
| CCc1cc(Cl)cc(Cl)c1-c1c(O)c2cn(C)nc2n(C)c1=O [I-a-74] | at least 80% |
| C=CCn1c(=O)c(-c2c(Br)cc(Cl)cc2CC)c(OC(=O)CC(C)C)c2scnc21 [I-b-14] | at least 80% |

test system: Setaria viridis; experiment: as above; type: in vivo; conditions: 320 grams per hectare, scored visually after 3 to 4 weeks

| Structure (SMILES) | effect against Setaria viridis |
| --- | --- |
| C=CCn1c(=O)c(-c2c(Br)cc(Cl)cc2CC)c(O)c2cn(C)nc21 [I-a-28] | at least 80% |
| C=CCn1c(=O)c(-c2c(C)cc(C)cc2C)c(O)c2scnc21 [I-a-2, 4-allyl-7-hydroxy-6-mesityl[1,3]thiazolo[4,5-b]pyridin-5(4H)-one] | at least 80% |
| CCc1cc(Cl)cc(Br)c1-c1c(O)c2cn(C)nc2n(CC(F)F)c1=O [I-a-43] | at least 80% |

same assay, conditions: 1280 grams per hectare, scored visually after 3 to 4 weeks

| Structure (SMILES) | effect against Setaria viridis |
| --- | --- |
| Cc1cc(Cl)cc(Cl)c1-c1c(O)c2cn(C)nc2n(CC(F)(F)F)c1=O [I-a-65] | at least 80% |
| Cn1cc2c(n1)N(CC(F)(F)F)S(=O)(=O)C(c1ccccc1I)=C2O [I-a-13] | at least 80% |
| CCc1cc(Cl)cc(Cl)c1-c1c(O)c2cn(C)nc2n(C)c1=O [I-a-74] | at least 80% |
| C=CCn1c(=O)c(-c2c(Br)cc(Cl)cc2CC)c(OC(=O)CC(C)C)c2scnc21 [I-b-14] | at least 80% |

test system: Stellaria media; experiment: as above; type: in vivo; conditions: 320 grams per hectare, scored visually after 3 to 4 weeks

| Structure (SMILES) | effect against Stellaria media |
| --- | --- |
| Cc1cc(Br)cc(C)c1-c1c(O)c2scnc2n(CC(F)F)c1=O [I-a-97] | at least 80% |
| Cc1ccc(Cl)c(-c2c(O)c3scnc3n(CC(F)F)c2=O)c1Cl [I-a-89] | at least 80% |
| O=c1c(-c2c(Cl)ccc(Br)c2Cl)c(O)c2scnc2n1CC(F)F [I-a-75] | at least 80% |
| Cc1c(Br)ccc(Cl)c1-c1c(O)c2scnc2n(CC(F)F)c1=O [I-a-94] | at least 80% |
| CCOC(=O)Oc1c(-c2c(C)cc(Br)cc2CC)c(=O)n(C)c2ncsc12 [I-c-38] | at least 80% |

test system: Amaranthus retroflexus; experiment: Post-emergence herbicidal action against weed plants; type: in vivo; conditions: 1280 grams per hectare, scored visually after 3 to 4 weeks

| Structure (SMILES) | effect against Amaranthus retroflexus |
| --- | --- |
| O=c1c(-c2c(Cl)cccc2Cl)c(O)c2scnc2n1CC(F)F [I-a-38] | at least 80% |
| Cn1cc2c(n1)N(CC(F)F)S(=O)(=O)C(c1c(Cl)cccc1Cl)=C2O [I-a-26] | at least 80% |
| CC(C)C(=O)OC1=C(c2c(Cl)cccc2Cl)S(=O)(=O)N(CC(F)F)c2nn(C)cc21 [I-b-1] | at least 80% |

test system: Lolium multiflorum; experiment: as above; type: in vivo; conditions: 1280 grams per hectare, scored visually after 3 to 4 weeks

| Structure (SMILES) | effect against Lolium multiflorum |
| --- | --- |
| O=c1c(-c2c(Cl)cccc2Cl)c(O)c2scnc2n1CC(F)F [I-a-38] | at least 80% |
| Cn1cc2c(n1)N(CC(F)F)S(=O)(=O)C(c1c(Cl)cccc1Cl)=C2O [I-a-26] | at least 80% |
| CC(C)C(=O)OC1=C(c2c(Cl)cccc2Cl)S(=O)(=O)N(CC(F)F)c2nn(C)cc21 [I-b-1] | at least 80% |

test system: Stellaria media; experiment: as above; type: in vivo; conditions: 320 grams per hectare, scored visually after 3 to 4 weeks

| Structure (SMILES) | effect against Stellaria media |
| --- | --- |
| Cc1ccc(Cl)c(-c2c(O)c3scnc3n(CC(F)(F)F)c2=O)c1Cl [I-a-86] | at least 80% |
| C[N+](C)(C)C.Cc1cc(C)c(-c2c([O-])c3scnc3n(CC(F)F)c2=O)c(C)c1 [I-g-5] | at least 80% |
| Cc1c(Br)ccc(Cl)c1-c1c(O)c2scnc2n(C)c1=O [I-a-93] | at least 80% |
| CCc1cc(Cl)cc(Br)c1-c1c(O)c2scnc2n(CC(F)F)c1=O [I-a-36] | at least 80% |
| Cc1cc(C)c(-c2c(O)c3scnc3n(CC(F)F)c2=O)c(C)c1 [I-a-37] | at least 80% |
| O=c1c(-c2c(Cl)ccc(C3CC3)c2Cl)c(O)c2scnc2n1CC(F)F [I-a-83] | at least 80% |
| C#CCOc1c(-c2ccccc2C(F)(F)F)c(=O)n(CC#C)c2ncsc12 [I-h-11] | at least 80% |
| C#CCn1c(=O)c(-c2c(Cl)cccc2Cl)c(O)c2scnc21 [I-a-44] | at least 80% |

same assay, conditions: 1280 grams per hectare, scored visually after 3 to 4 weeks

| Structure (SMILES) | effect against Stellaria media |
| --- | --- |
| O=c1c(-c2c(Cl)cccc2Cl)c(O)c2scnc2n1CC(F)F [I-a-38] | at least 80% |
| Cn1cc2c(n1)N(CC(F)F)S(=O)(=O)C(c1c(Cl)cccc1Cl)=C2O [I-a-26] | at least 80% |
| CC(C)C(=O)OC1=C(c2c(Cl)cccc2Cl)S(=O)(=O)N(CC(F)F)c2nn(C)cc21 [I-b-1] | at least 80% |

test system: Matricaria inodora; experiment: as above; type: in vivo; conditions: 320 grams per hectare, scored visually after 3 to 4 weeks

| Structure (SMILES) | effect against Matricaria inodora |
| --- | --- |
| CCc1cc(Cl)cc(Br)c1-c1c(O)c2scnc2n(CC(F)F)c1=O [I-a-36] | at least 80% |
| Cc1cc(C)c(-c2c(O)c3scnc3n(CC(F)F)c2=O)c(C)c1 [I-a-37] | at least 80% |
| C#CCn1c(=O)c(-c2c(Cl)cccc2Cl)c(O)c2scnc21 [I-a-44] | at least 80% |

same assay, conditions: 1280 grams per hectare, scored visually after 3 to 4 weeks

| Structure (SMILES) | effect against Matricaria inodora |
| --- | --- |
| O=c1c(-c2c(Cl)ccc(I)c2Cl)c(O)c2scnc2n1CC(F)F [I-a-88] | at least 80% |
| Cc1ccc(Cl)c(-c2c(O)c3scnc3n(CC(F)F)c2=O)c1Cl [I-a-89] | at least 80% |
| O=S1(=O)C(c2c(Cl)cccc2Cl)=C(O)c2scnc2N1CC(F)F [I-a-9] | at least 80% |
| Cn1cc2c(n1)N(CC(F)F)S(=O)(=O)C(c1c(Cl)cccc1Cl)=C2O [I-a-26] | at least 80% |
| O=c1c(-c2c(Cl)ccc(Br)c2Cl)c(O)c2scnc2n1CC(F)F [I-a-75] | at least 80% |
| Cc1c(Br)ccc(Cl)c1-c1c(O)c2scnc2n(CC(F)F)c1=O [I-a-94] | at least 80% |
| C=CCn1c(=O)c(-c2c(Cl)cccc2Cl)c(OC(=O)CC(C)C)c2scnc21 [I-b-13] | at least 80% |

test system: Fallopia convolvulus; experiment: as above; type: in vivo; conditions: 320 grams per hectare, scored visually after 3 to 4 weeks

| Structure (SMILES) | effect against Fallopia convolvulus |
| --- | --- |
| CCc1cc(Cl)cc(Br)c1-c1c(O)c2scnc2n(CC(F)F)c1=O [I-a-36] | at least 80% |
| Cc1cc(C)c(-c2c(O)c3scnc3n(CC(F)F)c2=O)c(C)c1 [I-a-37] | at least 80% |
| C#CCn1c(=O)c(-c2c(Cl)cccc2Cl)c(O)c2scnc21 [I-a-44] | at least 80% |

same assay, conditions: 1280 grams per hectare, scored visually after 3 to 4 weeks

| Structure (SMILES) | effect against Fallopia convolvulus |
| --- | --- |
| O=c1c(-c2c(Cl)ccc(I)c2Cl)c(O)c2scnc2n1CC(F)F [I-a-88] | at least 80% |
| Cc1ccc(Cl)c(-c2c(O)c3scnc3n(CC(F)F)c2=O)c1Cl [I-a-89] | at least 80% |
| O=S1(=O)C(c2c(Cl)cccc2Cl)=C(O)c2scnc2N1CC(F)F [I-a-9] | at least 80% |
| Cn1cc2c(n1)N(CC(F)F)S(=O)(=O)C(c1c(Cl)cccc1Cl)=C2O [I-a-26] | at least 80% |
| O=c1c(-c2c(Cl)ccc(Br)c2Cl)c(O)c2scnc2n1CC(F)F [I-a-75] | at least 80% |
| Cc1c(Br)ccc(Cl)c1-c1c(O)c2scnc2n(CC(F)F)c1=O [I-a-94] | at least 80% |
| C=CCn1c(=O)c(-c2c(Cl)cccc2Cl)c(OC(=O)CC(C)C)c2scnc21 [I-b-13] | at least 80% |

test system: Veronica persica; experiment: as above; type: in vivo; conditions: 320 grams per hectare, scored visually after 3 to 4 weeks

| Structure (SMILES) | effect against Veronica persica |
| --- | --- |
| Cc1ccc(Cl)c(-c2c(O)c3scnc3n(CC(F)(F)F)c2=O)c1Cl [I-a-86] | at least 80% |
| C[N+](C)(C)C.Cc1cc(C)c(-c2c([O-])c3scnc3n(CC(F)F)c2=O)c(C)c1 [I-g-5] | at least 80% |
| Cc1c(Br)ccc(Cl)c1-c1c(O)c2scnc2n(C)c1=O [I-a-93] | at least 80% |
| CCc1cc(Cl)cc(Br)c1-c1c(O)c2scnc2n(CC(F)F)c1=O [I-a-36] | at least 80% |
| Cc1cc(C)c(-c2c(O)c3scnc3n(CC(F)F)c2=O)c(C)c1 [I-a-37] | at least 80% |
| O=c1c(-c2c(Cl)ccc(C3CC3)c2Cl)c(O)c2scnc2n1CC(F)F [I-a-83] | at least 80% |
| C#CCOc1c(-c2ccccc2C(F)(F)F)c(=O)n(CC#C)c2ncsc12 [I-h-11] | at least 80% |
| C#CCn1c(=O)c(-c2c(Cl)cccc2Cl)c(O)c2scnc21 [I-a-44] | at least 80% |
